Laboratory results taken from publication PMC2861645.
Results are given in words; binding and its absence hold for the method and conditions named. Binding seen in cells or lysates may run through a third protein. Here binding means that the protein was enriched with, or labelled near, the bait; the list need not be complete.

Sequences of proteins named here, by UniProt entry; tags and fusion partners are left off.
UniProt P09874: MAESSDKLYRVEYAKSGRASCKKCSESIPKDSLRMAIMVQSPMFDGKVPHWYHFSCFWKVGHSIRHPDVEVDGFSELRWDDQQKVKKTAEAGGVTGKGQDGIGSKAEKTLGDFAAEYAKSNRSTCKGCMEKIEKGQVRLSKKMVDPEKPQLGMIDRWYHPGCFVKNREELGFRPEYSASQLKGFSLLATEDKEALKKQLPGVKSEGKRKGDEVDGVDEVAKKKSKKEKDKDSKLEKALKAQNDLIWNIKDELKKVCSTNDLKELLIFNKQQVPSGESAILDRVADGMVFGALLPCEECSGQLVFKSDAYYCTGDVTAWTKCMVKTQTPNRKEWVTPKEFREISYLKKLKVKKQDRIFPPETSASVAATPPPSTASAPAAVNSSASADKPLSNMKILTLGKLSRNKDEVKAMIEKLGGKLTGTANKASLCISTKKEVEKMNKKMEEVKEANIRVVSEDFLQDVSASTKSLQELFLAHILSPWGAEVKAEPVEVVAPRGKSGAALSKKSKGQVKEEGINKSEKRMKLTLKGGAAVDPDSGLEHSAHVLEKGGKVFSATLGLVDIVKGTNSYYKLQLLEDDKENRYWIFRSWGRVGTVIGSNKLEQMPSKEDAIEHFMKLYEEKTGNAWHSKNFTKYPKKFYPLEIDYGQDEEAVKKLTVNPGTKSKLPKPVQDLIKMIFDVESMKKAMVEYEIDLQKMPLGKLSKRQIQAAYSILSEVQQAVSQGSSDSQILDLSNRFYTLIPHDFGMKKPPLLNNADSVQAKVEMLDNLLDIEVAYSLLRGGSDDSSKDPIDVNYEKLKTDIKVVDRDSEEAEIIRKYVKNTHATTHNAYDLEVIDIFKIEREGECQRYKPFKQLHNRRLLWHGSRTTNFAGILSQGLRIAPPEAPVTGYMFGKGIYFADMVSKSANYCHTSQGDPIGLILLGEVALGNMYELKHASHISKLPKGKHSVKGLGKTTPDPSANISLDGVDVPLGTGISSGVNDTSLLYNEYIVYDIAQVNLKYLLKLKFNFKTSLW
UniProt P40938: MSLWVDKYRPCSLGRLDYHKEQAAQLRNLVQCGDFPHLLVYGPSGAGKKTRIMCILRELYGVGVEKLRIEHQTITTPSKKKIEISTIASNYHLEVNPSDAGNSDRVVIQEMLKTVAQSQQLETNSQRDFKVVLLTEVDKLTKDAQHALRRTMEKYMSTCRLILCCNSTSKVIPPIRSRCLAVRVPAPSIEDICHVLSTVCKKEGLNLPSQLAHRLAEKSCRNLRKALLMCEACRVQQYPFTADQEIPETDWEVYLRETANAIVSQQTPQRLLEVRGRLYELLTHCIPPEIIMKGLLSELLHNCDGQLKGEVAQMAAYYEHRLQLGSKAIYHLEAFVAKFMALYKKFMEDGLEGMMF
UniProt P13010: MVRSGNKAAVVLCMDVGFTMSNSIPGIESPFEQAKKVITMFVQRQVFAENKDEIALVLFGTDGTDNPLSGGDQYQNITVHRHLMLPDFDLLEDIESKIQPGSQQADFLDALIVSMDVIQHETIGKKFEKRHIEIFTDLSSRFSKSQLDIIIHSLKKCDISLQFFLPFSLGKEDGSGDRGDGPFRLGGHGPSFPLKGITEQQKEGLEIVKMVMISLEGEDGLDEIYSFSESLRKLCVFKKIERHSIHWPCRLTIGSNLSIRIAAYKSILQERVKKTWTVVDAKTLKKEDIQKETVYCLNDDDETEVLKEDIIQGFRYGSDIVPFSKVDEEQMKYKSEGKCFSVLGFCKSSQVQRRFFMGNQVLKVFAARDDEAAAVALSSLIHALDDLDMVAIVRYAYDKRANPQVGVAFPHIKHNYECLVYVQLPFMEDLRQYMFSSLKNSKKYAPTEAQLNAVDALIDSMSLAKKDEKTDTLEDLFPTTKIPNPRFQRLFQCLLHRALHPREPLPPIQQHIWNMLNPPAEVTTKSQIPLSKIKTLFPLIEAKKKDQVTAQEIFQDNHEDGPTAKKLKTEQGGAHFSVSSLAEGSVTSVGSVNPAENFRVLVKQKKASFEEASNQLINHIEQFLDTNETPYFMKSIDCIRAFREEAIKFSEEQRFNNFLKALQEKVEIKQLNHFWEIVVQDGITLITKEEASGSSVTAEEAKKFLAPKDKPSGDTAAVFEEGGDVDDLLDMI
UniProt P35249: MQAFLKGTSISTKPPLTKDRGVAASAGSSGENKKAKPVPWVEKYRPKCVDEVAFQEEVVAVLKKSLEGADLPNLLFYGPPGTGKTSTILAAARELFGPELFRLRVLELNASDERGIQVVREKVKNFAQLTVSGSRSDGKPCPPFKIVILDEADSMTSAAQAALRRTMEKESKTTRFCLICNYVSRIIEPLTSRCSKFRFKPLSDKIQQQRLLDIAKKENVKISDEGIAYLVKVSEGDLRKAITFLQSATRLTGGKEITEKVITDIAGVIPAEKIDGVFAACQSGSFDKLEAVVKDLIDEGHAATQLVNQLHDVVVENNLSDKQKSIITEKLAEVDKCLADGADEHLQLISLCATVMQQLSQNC
UniProt O75533: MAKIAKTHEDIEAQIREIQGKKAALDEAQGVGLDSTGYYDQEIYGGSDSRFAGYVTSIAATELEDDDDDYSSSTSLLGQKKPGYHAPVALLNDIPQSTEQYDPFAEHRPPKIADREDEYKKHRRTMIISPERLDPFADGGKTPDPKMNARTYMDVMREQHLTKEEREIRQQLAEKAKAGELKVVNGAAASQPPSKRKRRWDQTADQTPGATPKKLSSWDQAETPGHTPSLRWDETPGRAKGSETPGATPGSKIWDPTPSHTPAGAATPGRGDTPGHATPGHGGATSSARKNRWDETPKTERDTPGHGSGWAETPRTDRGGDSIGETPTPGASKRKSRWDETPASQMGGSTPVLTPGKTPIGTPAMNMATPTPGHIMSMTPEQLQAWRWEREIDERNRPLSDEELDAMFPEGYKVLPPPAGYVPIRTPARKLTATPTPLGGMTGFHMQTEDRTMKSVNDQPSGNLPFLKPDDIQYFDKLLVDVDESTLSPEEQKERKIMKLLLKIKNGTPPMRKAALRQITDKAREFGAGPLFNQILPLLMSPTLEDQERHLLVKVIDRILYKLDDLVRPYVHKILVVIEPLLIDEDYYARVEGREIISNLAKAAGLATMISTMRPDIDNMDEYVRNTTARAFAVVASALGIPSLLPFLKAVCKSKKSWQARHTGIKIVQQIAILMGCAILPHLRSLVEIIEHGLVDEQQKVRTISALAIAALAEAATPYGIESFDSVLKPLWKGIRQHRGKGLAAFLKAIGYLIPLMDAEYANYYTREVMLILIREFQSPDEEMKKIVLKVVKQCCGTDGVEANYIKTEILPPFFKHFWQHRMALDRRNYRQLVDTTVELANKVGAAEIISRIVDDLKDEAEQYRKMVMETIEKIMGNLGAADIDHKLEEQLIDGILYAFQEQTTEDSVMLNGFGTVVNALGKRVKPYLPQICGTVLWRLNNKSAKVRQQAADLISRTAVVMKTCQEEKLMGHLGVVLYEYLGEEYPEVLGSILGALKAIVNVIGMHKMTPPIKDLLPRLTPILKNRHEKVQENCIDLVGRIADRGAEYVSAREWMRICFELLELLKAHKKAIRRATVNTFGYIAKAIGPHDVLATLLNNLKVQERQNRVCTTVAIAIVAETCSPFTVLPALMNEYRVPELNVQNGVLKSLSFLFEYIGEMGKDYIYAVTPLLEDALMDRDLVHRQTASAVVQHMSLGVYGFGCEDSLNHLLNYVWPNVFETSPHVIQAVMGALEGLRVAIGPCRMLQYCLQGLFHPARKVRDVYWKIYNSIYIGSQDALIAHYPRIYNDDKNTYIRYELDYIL
UniProt Q86W56: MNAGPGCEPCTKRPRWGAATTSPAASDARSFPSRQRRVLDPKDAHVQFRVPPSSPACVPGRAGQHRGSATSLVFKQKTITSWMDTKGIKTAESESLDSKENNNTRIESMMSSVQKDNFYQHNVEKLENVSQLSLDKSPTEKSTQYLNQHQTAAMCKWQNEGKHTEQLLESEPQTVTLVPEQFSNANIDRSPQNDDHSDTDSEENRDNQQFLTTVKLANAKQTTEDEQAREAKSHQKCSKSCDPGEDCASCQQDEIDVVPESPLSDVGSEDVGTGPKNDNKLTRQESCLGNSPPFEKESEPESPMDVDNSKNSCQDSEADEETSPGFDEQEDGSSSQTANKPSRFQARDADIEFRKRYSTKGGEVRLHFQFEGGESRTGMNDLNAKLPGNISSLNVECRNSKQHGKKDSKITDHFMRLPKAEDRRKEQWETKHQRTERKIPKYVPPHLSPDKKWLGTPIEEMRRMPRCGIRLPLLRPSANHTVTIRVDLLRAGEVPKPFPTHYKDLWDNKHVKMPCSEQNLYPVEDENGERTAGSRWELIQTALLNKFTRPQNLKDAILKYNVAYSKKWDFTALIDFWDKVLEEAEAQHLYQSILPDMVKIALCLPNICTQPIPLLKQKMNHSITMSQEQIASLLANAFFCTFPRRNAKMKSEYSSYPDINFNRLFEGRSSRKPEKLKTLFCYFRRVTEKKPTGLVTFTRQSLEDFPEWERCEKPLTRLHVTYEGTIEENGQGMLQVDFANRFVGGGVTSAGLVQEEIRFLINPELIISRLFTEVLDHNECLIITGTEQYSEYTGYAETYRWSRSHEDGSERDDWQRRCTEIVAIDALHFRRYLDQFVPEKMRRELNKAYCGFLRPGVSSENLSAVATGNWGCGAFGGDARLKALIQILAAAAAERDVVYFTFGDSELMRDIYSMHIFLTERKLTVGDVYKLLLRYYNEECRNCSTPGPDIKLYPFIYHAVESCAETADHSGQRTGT
UniProt Q9UGN5: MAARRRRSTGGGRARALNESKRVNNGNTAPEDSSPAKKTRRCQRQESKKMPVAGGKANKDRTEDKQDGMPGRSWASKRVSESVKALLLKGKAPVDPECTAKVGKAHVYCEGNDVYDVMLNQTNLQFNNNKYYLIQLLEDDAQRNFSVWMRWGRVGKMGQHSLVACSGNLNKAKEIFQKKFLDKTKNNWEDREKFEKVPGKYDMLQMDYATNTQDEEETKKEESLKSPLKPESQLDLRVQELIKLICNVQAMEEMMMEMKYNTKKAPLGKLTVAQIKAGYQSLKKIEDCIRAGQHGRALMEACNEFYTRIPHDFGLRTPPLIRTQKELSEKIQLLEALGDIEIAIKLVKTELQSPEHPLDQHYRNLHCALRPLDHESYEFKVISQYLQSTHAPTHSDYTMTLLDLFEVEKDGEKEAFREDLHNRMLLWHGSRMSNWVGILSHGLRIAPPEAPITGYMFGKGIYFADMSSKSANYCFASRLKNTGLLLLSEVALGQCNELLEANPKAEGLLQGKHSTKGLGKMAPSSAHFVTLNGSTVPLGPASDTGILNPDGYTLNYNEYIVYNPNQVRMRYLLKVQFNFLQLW
UniProt P38919: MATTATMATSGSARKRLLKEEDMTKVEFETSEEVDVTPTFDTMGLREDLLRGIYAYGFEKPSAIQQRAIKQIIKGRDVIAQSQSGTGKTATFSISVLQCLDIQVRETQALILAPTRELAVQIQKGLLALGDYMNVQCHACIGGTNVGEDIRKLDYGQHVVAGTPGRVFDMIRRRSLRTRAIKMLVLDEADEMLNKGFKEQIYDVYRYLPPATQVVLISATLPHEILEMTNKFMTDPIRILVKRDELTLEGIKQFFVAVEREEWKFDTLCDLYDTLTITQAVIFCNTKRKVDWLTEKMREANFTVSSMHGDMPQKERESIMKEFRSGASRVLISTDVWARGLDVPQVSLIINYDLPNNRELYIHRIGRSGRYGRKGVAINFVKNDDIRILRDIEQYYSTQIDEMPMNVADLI
UniProt P27694: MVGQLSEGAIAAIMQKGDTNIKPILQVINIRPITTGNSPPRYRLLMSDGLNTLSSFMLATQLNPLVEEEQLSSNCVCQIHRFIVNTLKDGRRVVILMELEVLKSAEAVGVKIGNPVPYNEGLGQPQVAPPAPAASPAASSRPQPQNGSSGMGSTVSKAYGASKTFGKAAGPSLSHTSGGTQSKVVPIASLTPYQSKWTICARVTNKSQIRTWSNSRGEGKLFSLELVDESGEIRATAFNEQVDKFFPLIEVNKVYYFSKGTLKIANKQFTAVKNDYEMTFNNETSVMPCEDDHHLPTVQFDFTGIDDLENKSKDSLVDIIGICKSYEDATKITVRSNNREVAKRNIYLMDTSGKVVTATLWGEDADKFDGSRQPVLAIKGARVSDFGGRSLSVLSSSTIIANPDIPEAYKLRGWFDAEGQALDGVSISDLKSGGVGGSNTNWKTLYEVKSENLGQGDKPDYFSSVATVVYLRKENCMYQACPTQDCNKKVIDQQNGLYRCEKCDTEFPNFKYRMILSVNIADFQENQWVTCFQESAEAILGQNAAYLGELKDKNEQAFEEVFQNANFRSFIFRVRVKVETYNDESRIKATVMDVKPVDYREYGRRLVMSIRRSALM

B1: THO complex subunit 1 (protein, UniProt Q96FV9 1-657)
chain: MSPTPPLFSLPEARTRFTKSTREALNNKNIKPLLSTFSQVPGSENEKKCTLDQAFRGILEEEIINHSSCENVLAIISLAIGGVTEGICTASTPFVLLGDVLDCLPLDQCDTIFTFVEKNVATWKSNTFYSAGKNYLLRMCNDLLRRLSKSQNTVFCGRIQLFLARLFPLSEKSGLNLQSQFNLENVTVFNTNEQESTLGQKHTEDREEGMDVEEGEMGDEEAPTTCSIPIDYNLYRKFWSLQDYFRNPVQCYEKISWKTFLKYSEEVLAVFKSYKLDDTQASRKKMEELKTGGEHVYFAKFLTSEKLMDLQLSDSNFRRHILLQYLILFQYLKGQVKFKSSNYVLTDEQSLWIEDTTKSVYQLLSENPPDGERFSKMVEHILNTEENWNSWKNEGCPSFVKERTSDTKPTRIIRKRTAPEDFLGKGPTKKILMGNEELTRLWNLCPDNMEACKSETREHMPTLEEFFEEAIEQADPENMVENEYKAVNNSNYGWRALRLLARRSPHFFQPTNQQFKSLPEYLENMVIKLAKELPPPSEEIKTGEDEDEEDNDALLKENESPDVRRDKPVTGEQIEVFANKLGEQWKILAPYLEMKDSEIRQIECDSEDMKMRAKQLLVAWQDQEGVHATPENLINALNKSGLSDLAESLTNDNETNS
B2: THO complex subunit 5 (protein, UniProt Q13769 1-683)
chain: MSSESSKKRKPKVIRSDGAPAEGKRNRSDTEQEGKYYSEEAEVDLRDPGRDYELYKYTCQELQRLMAEIQDLKSRGGKDVAIEIEERRIQSCVHFMTLKKLNRLAHIRLKKGRDQTHEAKQKVDAYHLQLQNLLYEVMHLQKEITKCLEFKSKHEEIDLVSLEEFYKEAPPDISKAEVTMGDPHQQTLARLDWELEQRKRLAEKYRECLSNKEKILKEIEVKKEYLSSLQPRLNSIMQASLPVQEYLFMPFDQAHKQYETARHLPPPLYVLFVQATAYGQACDKTLSVAIEGSVDEAKALFKPPEDSQDDESDSDAEEEQTTKRRRPTLGVQLDDKRKEMLKRHPLSVMLDLKCKDDSVLHLTFYYLMNLNIMTVKAKVTTAMELITPISAGDLLSPDSVLSCLYPGDHGKKTPNPANQYQFDKVGILTLSDYVLELGHPYLWVQKLGGLHFPKEQPQQTVIADHSLSASHMETTMKLLKTRVQSRLALHKQFASLEHGIVPVTSDCQYLFPAKVVSRLVKWVTVAHEDYMELHFTKDIVDAGLAGDTNLYYMALIERGTAKLQAAVVLNPGYSSIPPVFQLCLNWKGEKTNSNDDNIRAMEGEVNVCYKELCGPWPSHQLLTNQLQRLCVLLDVYLETESHDDSVEGPKEFPQEKMCLRLFRGPSRMKPFKYNHPQGFFSHR
B3: THO complex subunit 6 (protein, UniProt Q86W42 1-341)
chain: MERAVPLAVPLGQTEVFQALQRLHMTIFSQSVSPCGKFLAAGNNYGQIAIFSLSSALSSEAKEESKKPVVTFQAHDGPVYSMVSTDRHLLSAGDGEVKAWLWAEMLKKGCKELWRRQPPYRTSLEVPEINALLLVPKENSLILAGGDCQLHTMDLETGTFTRVLRGHTDYIHCLALRERSPEVLSGGEDGAVRLWDLRTAKEVQTIEVYKHEECSRPHNGRWIGCLATDSDWMVCGGGPALTLWHLRSSTPTTIFPIRAPQKHVTFYQDLILSAGQGRCVNQWQLSGELKAQVPGSSPGLLSLSLNQQPAAPECKVLTAAGNSCRVDVFTNLGYRAFSLSF
B4: RNA-binding protein 14 (protein, UniProt Q96PK6 1-669)
chain: MKIFVGNVDGADTTPEELAALFAPYGTVMSCAVMKQFAFVHMRENAGALRAIEALHGHELRPGRALVVEMSRPRPLNTWKIFVGNVSAACTSQELRSLFERRGRVIECDVVKDYAFVHMEKEADAKAAIAQLNGKEVKGKRINVELSTKGQKKGPGLAVQSGDKTKKPGAGDTAFPGTGGFSATFDYQQAFGNSTGGFDGQARQPTPPFFGRDRSPLRRSPPRASYVAPLTAQPATYRAQPSVSLGAAYRAQPSASLGVGYRTQPMTAQAASYRAQPSVSLGAPYRGQLASPSSQSAAASSLGPYGGAQPSASALSSYGGQAAAASSLNSYGAQGSSLASYGNQPSSYGAQAASSYGVRAAASSYNTQGAASSLGSYGAQAASYGAQSAASSLAYGAQAASYNAQPSASYNAQSAPYAAQQAASYSSQPAAYVAQPATAAAYASQPAAYAAQATTPMAGSYGAQPVVQTQLNSYGAQASMGLSGSYGAQSAAAATGSYGAAAAYGAQPSATLAAPYRTQSSASLAASYAAQQHPQAAASYRGQPGNAYDGAGQPSAAYLSMSQGAVANANSTPPPYERTRLSPPRASYDDPYKKAVAMSKRYGSDRRLAELSDYRRLSESQLSFRRSPTKSSLDYRRLPDAHSDYARYSGSYNDYLRAAQMHSGYQRRM
B5: nuclear Fragile-X mental retardation-interacting protein 2 (protein, UniProt Q7Z417 1-695)
chain: MEEKPGQPQPQHHHSHHHPHHHPQQQQQQPHHHHHYYFYNHSHNHHHHHHHQQPHQYLQHGAEGSPKAQPKPLKHEQKHTLQQHQETPKKKTGYGELNGNAGEREISLKNLSSDEATNPISRVLNGNQQVVDTSLKQTVKANTFGKAGIKTKNFIQKNSMDKKNGKSYENKSGENQSVDKSDTIPIPNGVVTNNSGYITNGYMGKGADNDGSGSESGYTTPKKRKARRNSAKGCENLNIVQDKIMQQETSVPTLKQGLETFKPDYSEQKGNRVDGSKPIWKYETGPGGTSRGKPAVGDMLRKSSDSKPGVSSKKFDDRPKGKHASAVASKEDSWTLFKPPPVFPVDNSSAKIVPKISYASKVKENLNKTIQNSSVSPTSSSSSSSSTGETQTQSSSRLSQVPMSALKSVTSANFSNGPVLAGTDGNVYPPGGQPLLTTAANTLTPISSGTDSVLQDMSLTSAAVEQIKTSLFIYPSNMQTMLLSTAQVDLPSQTDQQNLGDIFQNQWGLSFINEPSAGPETVTGKSSEHKVMEVTFQGEYPATLVSQGAEIIPSGTEHPVFPKAYELEKRTSPQVLGSILKSGTTSESGALSLEPSHIGDLQKADTSSQGALVFLSKDYEIESQNPLASPTNTLLGSAKEQRYQRGLERNDSWGSFDLRAAIVYHTKEMESIWNLQKQDPKRIITYNEAMDSPDQ

target: Poly(ADP-ribose) polymerase 1 (PARP-1) (human (endogenous in SK-N-SH or HeLa)) (UniProt P09874); assay: affinity purification with mass spectrometry; PARP-1 immunoprecipitated from human cell lysate (SK-N-SH or HeLa; phosphate or Tris lysis buffer pH 8.0, 150 mM NaCl, 1% NP-40) with monoclonal F1-23 on protein G magnetic beads, 2 h at 4°C; control normal mouse IgG; SDS-PAGE, in-gel trypsin digestion, LC-MS/MS; each hit in at least two pull-downs

Molecule | binding
splicing factor 3B2 (from UniProt Q13435 1-895) | binds
Baculoviral IAP repeat-containing protein 6 (from UniProt Q9NR09 1-4857) | binds
Replication factor C subunit 2 (from UniProt P35250 1-354) | binds
Bcl-2-associated transcription factor 1 (from UniProt Q9NYF8 1-920) | binds
heat shock protein 60kDa mitochondrial (from UniProt P10809 27-573) | binds
Replication factor C subunit 3 (from UniProt P40938 1-356) | binds
ATP-dependent DNA helicase II 80 kDa subunit (from UniProt P13010 1-732) | binds
Replication factor C subunit 5 (from UniProt P40937 1-340) | binds
Replication factor C subunit 4 (from UniProt P35249 1-363) | binds
splicing factor 3B1 (from UniProt O75533 1-1304) | binds
U5 snRNP 200 kDa (from UniProt O75643 1-2136) | binds
B1 | binds
B2 | binds
B3 | binds
B4 | binds

target: FLAG-PARG (UniProt Q86W56); assay: affinity purification with mass spectrometry; transiently overexpressed FLAG-PARP-2 or FLAG-PARG immunoprecipitated from human cell lysate (phosphate or Tris lysis buffer pH 8.0, 150 mM NaCl, 1% NP-40) with anti-FLAG M2 on protein G magnetic beads, 2 h at 4°C; control normal mouse IgG; SDS-PAGE, in-gel trypsin digestion, LC-MS/MS; each hit in at least two pull-downs

Molecule | binding
FXR2 (from UniProt P51116 1-673) | binds
hnRNP Q (from UniProt O60506 1-623) | binds
B5 | binds

target: FLAG-PARP-2 (UniProt Q9UGN5); assay: as above

Molecule | binding
hnRNP G (from UniProt P38159 1-391) | binds
FXR2 (from UniProt P51116 1-673) | binds
DEAD box polypeptide 48 (from UniProt P38919 1-411) | binds
heat shock protein 60kDa mitochondrial (from UniProt P10809 27-573) | binds
ATP-dependent DNA helicase II 80 kDa subunit (from UniProt P13010 1-732) | binds
Replication Factor A protein 1 (from UniProt P27694 1-616) | binds
catalytic subunit of DNA-dependent protein kinase (DNA-PK) (from UniProt P78527 1-4128) (enzyme) | binds
ATP-dependent DNA helicase II 70 kDa subunit (from UniProt P12956 1-609) | binds
B4 | binds
